# Experimental data: US6787563B2, “Crystalline 3-{4-methyl-3-[methyl-(7H-pyrrolo[2,3-d]pyrimidin-4-yl)-amino]-piperidin-1-yl}-3-oxo-propionitrile citrate” (Pfizer Inc., priority 2001, dated 2004)
# At least one structure is not confirmed: it was looked up by name or label, or the drawing left a doubt.
# Tested on: Salmonella enteriditis lipopolysaccharide (LPS) induced diarrhoea
# Experiment: Diarrhoea induced by Salmonella lipopolysaccharide (LPS) in mice
# Format: in vivo
# Details: male dBA2 mice, oral route
compound,measurement,value
"c1ccc(CCCC2CCCN2CC2CC2)cc1 (stereo not shown) [Example 1, 1-Cyclopropylmethyl-2-(3-phenylpropyl)pyrrolidine]",activity in LPS-induced diarrhoea test (in words),very active
